Data as given in PubChem BioAssay AID602196 (INSERM, 2012)
The deposit covers about 23,000 reagents; shown is an unselected part. Of all reagents, 455 (2%) are marked active. 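Active includes both protection and sensitisation; some change values fall well beyond the stated -50 to +50 range.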 Reagents against one gene are numbered here. The record does not give: the amount of reagent.

Screen: 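Genes whose knock-down alters cisplatin killing of lung cancer cells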
System: human A549 lung cancer cells
Reagent: siRNA pair against human genes
Timing: 48 h transfection before cisplatin; time from cisplatin to read-out not stated
Treatment: cisplatin at a dose killing half of control-siRNA cells; exact dose and duration not given
Read-out: 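Shift in cisplatin death relative to control siRNA, from -50 (all cells die) to +50 (no cells die); siRNAs harmful on their own scored 0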
Scale: two-siRNA summed score (-2 to +2): higher = both siRNAs protect from cisplatin killing; -2 means both sensitise; mean protection from cisplatin (shift in death) and protection from cisplatin (shift in death), siRNA C and protection from cisplatin (shift in death), siRNA D: higher = protection from cisplatin killing
Active means: 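Each siRNA scores 0 if harmful alone by LDH or WST-1, otherwise +1 if it reduces and -1 if it increases cisplatin killing; a gene is active when both siRNAs agree (sum +2 or -2)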
Calls: active = both siRNAs shift cisplatin killing the same way; inactive = no consistent shift, or siRNA harmful alone

The opening 4 entries, ahead of the listing:
target gene	reagent no.	two-siRNA summed score (-2 to +2)	mean protection from cisplatin (shift in death) (%)	protection from cisplatin (shift in death), siRNA C (%)	protection from cisplatin (shift in death), siRNA D (%)	Outcome
RPL28 (ribosomal protein L28)	1	1	16.6	15.8	17.4	inactive
IL5 (interleukin 5)	1	0	0.9	-5.3	7.1	inactive
PSMB10 (proteasome 20S subunit beta 10)	1	0	4.4	-4.8	13.7	inactive
LOC440589	1	0	-3.4	-6.3	-0.5	inactive

Main list, repeating the preview:
target gene	reagent no.	two-siRNA summed score (-2 to +2)	mean protection from cisplatin (shift in death) (%)	protection from cisplatin (shift in death), siRNA C (%)	protection from cisplatin (shift in death), siRNA D (%)	Outcome
RPL28 (ribosomal protein L28)	1	1	16.6	15.8	17.4	inactive
IL5 (interleukin 5)	1	0	0.9	-5.3	7.1	inactive
PSMB10 (proteasome 20S subunit beta 10)	1	0	4.4	-4.8	13.7	inactive
LOC440589	1	0	-3.4	-6.3	-0.5	inactive
NRBP2 (nuclear receptor binding protein 2)	1	1	3.6	14.7	-7.5	inactive
ZNRD2 (zinc ribbon domain containing 2)	1	0	6.3	0.6	12.1	inactive
KIAA1571	1	0	5.8	1.6	10	inactive
LINC02906 (long independently transcribed non-coding RNA 2906)	1	0	5.8	2.8	8.8	inactive
MAPRE3 (microtubule associated protein RP/EB family member 3)	1	0	7.1	17.1	-2.9	inactive
UQCRB (ubiquinol-cytochrome c reductase binding protein)	1	0	6.4	13.1	-0.2	inactive
MAST4	1	0	3.3	5.8	0.8	inactive
MAST4	2	1	4.8	10	-0.4	inactive
PNLIPRP1 (pancreatic lipase related protein 1)	1	-1	-23.3	-40.3	-6.3	inactive
LINC00923 (long independently transcribed non-coding RNA 923)	1	0	7.2	8.3	6.1	inactive
CD99 (CD99 molecule (Xg blood group))	1	0	7.8	24.4	-8.9	inactive
COG5 (component of oligomeric golgi complex 5)	1	0	4.1	8.1	0.1	inactive
LINC01097 (long independently transcribed non-coding RNA 1097)	1	0	8.7	7.6	9.9	inactive
KCTD10 (potassium channel tetramerization domain containing 10)	1	0	7.6	6.4	8.7	inactive
LENEP (lens epithelial protein)	1	0	5.3	-2.5	13	inactive
CAPN10 (calpain 10)	1	0	6.3	13.7	-1.1	inactive
LOC440945	1	0	11.4	4.9	18	inactive
PDE6C (phosphodiesterase 6C)	1	0	-2.3	-8.3	3.8	inactive
SDCCAG8 (SHH signaling and ciliogenesis regulator SDCCAG8)	1	1	16.3	5.4	27.3	inactive
TCF25 (TCF25 ribosome quality control complex subunit)	1	0	9.7	8.7	10.7	inactive
HHIPL1 (HHIP like 1)	1	1	14.2	5	23.3	inactive
PRKG2 (protein kinase cGMP-dependent 2)	1	-1	-4.9	13.8	-23.7	inactive
TTC23L (tetratricopeptide repeat domain 23 like)	1	1	5.1	22	-11.8	inactive
SFTPA2 (surfactant protein A2)	1	1	7	1	13.1	inactive
LOC389253	1	0	-14.4	-14.2	-14.6	inactive
RASL11A (RAS like family 11 member A)	1	0	4.5	-1	10	inactive
ANKRD22 (ankyrin repeat domain 22)	1	1	10.7	10	11.4	inactive
PSMA2 (proteasome 20S subunit alpha 2)	1	0	-1.7	-11.7	8.3	inactive
LMF2 (lipase maturation factor 2)	1	0	6	8.3	3.8	inactive
DKFZp547K054	1	0	2.8	0.3	5.3	inactive
LOC440759	1	1	5.5	16.9	-5.8	inactive
TXNDC5 (thioredoxin domain containing 5)	1	0	10.1	2.9	17.3	inactive
SEC61B (SEC61 translocon subunit beta)	1	0	3.5	1.2	5.7	inactive
IL4 (interleukin 4)	1	0	-8.3	-7.2	-9.4	inactive
TMEM97 (transmembrane protein 97)	1	0	3.5	4.1	3	inactive
